The record followed here is patent US9241891B2, “Personal care compositions comprising self-assembling peptides” (The Procter & Gamble Company, priority 2012, dated 2016).

The data set in a line: Contraction assay on polyurethane foam substrate (skin smoothing / wrinkle reduction). To be noted: dried 24 hours.

As to RADARADARADARADA [PuraMatrix ™], the “Contraction of foam substrate (in words)” value (hexadecapeptide treatment) is “contraction is observed”. In addition, the “Length after the treatment (distance between ends of foam substrate)” value (initial length of the foam 40 mm, 150 μL heat-treated PuraMatrix on foam with NaCl/CaCl2 salt solution) is 34 mm.
